Experimental data as given in PMC11876336.
These are yes or no findings as the source states them, for the method shown. Binding seen in cells or lysates may run through a third protein. Here binding means that the protein was enriched with, or labelled near, the bait; the list need not be complete.

By UniProt entry, the sequences of proteins in these tests, tags left out.
UniProt Q16665: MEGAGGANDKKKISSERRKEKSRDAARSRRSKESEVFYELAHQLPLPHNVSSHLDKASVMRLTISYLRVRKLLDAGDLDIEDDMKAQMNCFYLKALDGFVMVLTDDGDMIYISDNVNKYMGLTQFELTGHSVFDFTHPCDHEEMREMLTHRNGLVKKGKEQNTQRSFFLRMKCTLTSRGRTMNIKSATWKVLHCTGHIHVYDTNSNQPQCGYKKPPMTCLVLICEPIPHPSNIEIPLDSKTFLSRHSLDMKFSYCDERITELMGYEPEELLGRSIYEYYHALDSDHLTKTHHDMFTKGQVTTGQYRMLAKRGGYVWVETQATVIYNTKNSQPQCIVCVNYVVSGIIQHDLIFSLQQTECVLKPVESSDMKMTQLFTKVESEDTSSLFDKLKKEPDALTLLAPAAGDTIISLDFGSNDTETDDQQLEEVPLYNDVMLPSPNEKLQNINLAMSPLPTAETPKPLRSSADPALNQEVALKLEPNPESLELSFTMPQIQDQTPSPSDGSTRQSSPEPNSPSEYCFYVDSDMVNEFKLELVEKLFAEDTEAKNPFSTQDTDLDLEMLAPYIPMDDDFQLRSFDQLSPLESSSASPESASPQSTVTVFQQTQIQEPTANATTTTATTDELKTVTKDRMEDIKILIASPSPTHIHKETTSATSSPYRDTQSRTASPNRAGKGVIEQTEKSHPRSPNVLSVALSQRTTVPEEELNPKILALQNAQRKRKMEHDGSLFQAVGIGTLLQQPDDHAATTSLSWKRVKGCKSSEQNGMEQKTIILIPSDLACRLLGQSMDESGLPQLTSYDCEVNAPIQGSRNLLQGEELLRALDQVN
UniProt Q9UBN7: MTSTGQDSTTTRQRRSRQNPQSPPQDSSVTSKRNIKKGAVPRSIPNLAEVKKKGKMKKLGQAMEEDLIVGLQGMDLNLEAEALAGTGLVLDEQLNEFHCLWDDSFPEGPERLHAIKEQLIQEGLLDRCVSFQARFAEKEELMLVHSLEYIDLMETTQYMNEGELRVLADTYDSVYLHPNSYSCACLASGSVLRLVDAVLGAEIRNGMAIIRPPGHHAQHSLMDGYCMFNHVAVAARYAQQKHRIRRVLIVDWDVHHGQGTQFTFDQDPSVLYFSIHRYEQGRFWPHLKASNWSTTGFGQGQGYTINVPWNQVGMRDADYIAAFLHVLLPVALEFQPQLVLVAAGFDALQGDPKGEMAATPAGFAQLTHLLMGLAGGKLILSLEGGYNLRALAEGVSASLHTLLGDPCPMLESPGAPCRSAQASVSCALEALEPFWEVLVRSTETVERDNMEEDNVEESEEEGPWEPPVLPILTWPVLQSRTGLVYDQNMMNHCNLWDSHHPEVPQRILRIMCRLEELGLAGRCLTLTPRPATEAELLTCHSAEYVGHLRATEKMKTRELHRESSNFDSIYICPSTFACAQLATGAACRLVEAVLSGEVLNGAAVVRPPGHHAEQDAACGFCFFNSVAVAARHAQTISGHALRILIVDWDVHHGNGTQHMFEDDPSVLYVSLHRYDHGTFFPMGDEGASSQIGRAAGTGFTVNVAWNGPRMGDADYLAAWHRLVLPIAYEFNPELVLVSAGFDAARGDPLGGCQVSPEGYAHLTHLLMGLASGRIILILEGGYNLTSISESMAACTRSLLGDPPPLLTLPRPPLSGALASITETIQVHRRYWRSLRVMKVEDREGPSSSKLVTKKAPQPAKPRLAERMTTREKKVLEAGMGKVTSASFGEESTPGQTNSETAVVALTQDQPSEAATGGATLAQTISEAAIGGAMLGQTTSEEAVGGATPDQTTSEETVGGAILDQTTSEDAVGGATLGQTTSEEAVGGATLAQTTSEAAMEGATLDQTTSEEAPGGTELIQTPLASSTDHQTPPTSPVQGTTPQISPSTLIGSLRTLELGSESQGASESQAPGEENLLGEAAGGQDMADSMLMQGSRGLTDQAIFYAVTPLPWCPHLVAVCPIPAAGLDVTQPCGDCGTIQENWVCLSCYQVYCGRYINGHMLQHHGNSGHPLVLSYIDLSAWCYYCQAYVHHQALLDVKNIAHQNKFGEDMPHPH

Each molecule was assayed against hypoxia-inducible factor 1α (human (endogenous in human colon cancer cell lines)) (UniProt Q16665) (assay: affinity purification with mass spectrometry; Co-IP of HIF-1α followed by mass spectrometry; cells not given).

binding | Molecule
binds | histone deacetylase 6 (from UniProt Q9UBN7 1-1215) (enzyme)
binds | NAA10 (protein, UniProt P41227 1-235) MNIRNARPEDLMNMQHCNLLCLPENYQMKYYFYHGLSWPQLSYIAEDENGKIVGYVLAKMEEDPDDVPHGHITSLAVKRSHRRLGLAQKLMDQASRAMIENFNAKYVSLHVRKSNRAALHLYSNTLNFQISEVEPKYYADGEDAYAMKRDLTQMADELRRHLELKEKGRHVVLGAIENKVESKGNSPPSSGEACREEKGLAAEDSGGDSKDLSEVSETTESTDVKDSSEASDSAS
binds | HNF4A (protein, UniProt P41235 1-474) MRLSKTLVDMDMADYSAALDPAYTTLEFENVQVLTMGNDTSPSEGTNLNAPNSLGVSALCAICGDRATGKHYGASSCDGCKGFFRRSVRKNHMYSCRFSRQCVVDKDKRNQCRYCRLKKCFRAGMKKEAVQNERDRISTRRSSYEDSSLPSINALLQAEVLSRQITSPVSGINGDIRAKKIASIADVCESMKEQLLVLVEWAKYIPAFCELPLDDQVALLRAHAGEHLLLGATKRSMVFKDVLLLGNDYIVPRHCPELAEMSRVSIRILDELVLPFQELQIDDNEYAYLKAIIFFDPDAKGLSDPGKIKRLRSQVQVSLEDYINDRQYDSRGRFGELLLLLPTLQSITWQMIEQIQFIKLFGMAKIDNLLQEMLLGGSPSDAPHAHHPLHPHLMQEHMGTNVIVANTMPTHLSNGQMCEWPRPRGQAATPETPQPSPPGGSGSEPYKLLPGAVATIVKPLSAIPQPTITKQEVI
